# Data reported in the M2OR odorant receptor database.
# Chains of the proteins cited; added tags and fusions are not shown. A line that says so, or that is headed by a name, gives the form on record, which may keep a tag or linker.
# UniProt Q8VG28, as listed by the source: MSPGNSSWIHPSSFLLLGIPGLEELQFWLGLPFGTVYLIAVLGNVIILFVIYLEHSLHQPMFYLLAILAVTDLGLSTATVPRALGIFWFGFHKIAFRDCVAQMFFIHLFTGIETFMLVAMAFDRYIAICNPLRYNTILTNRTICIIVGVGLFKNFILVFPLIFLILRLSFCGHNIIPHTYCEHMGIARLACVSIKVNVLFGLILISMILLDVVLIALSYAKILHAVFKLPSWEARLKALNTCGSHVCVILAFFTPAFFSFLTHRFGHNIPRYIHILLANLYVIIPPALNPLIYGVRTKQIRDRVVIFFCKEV
# The list shows a part of the results, in another mix than the full data. The calls were merged from several studies; some rest on single wells. The list shows a part of the results.
# Legend:
# Settings in all cases: stereoisomer not certain
# UniProt Q8VG28 = biological target: UniProt Q8VG28
# In short: (§1)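 Each entry records the cell line, G-protein, co-transfected protein and tags used. Methods varied with the source, often transient luciferase assays in mammalian cell lines. A receptor–molecule pair is called responsive (active) if the original authors judged its signal statistically different from baseline and non-responsive (inactive) otherwise.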
# UniProt Q8VG53 = biological target: T1, UniProt Q8VG53
# T1 sequence (whole entry): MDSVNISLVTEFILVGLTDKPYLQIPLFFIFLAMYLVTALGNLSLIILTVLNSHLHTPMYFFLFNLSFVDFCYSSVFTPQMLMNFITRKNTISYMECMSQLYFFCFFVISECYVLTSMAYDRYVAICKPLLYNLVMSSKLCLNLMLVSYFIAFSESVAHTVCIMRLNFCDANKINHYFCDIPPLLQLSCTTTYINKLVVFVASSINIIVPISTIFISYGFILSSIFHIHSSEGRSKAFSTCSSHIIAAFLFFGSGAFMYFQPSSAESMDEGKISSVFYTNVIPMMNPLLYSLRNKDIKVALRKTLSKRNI
# In short: as §1
# UniProt Q8VG64 = biological target: T2, UniProt Q8VG64
# T2 sequence (whole entry): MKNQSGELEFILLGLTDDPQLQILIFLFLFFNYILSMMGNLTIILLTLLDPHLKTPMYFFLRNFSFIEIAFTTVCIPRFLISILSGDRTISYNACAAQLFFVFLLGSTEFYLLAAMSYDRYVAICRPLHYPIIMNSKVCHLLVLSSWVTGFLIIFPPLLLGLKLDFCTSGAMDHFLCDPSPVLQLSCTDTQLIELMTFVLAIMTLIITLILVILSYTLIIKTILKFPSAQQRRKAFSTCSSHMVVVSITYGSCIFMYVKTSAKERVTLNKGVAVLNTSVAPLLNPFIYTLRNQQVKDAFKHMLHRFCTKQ
# In short: as §1
# UniProt Q8VGB9 = biological target: T3, UniProt Q8VGB9
# T3 sequence (whole entry): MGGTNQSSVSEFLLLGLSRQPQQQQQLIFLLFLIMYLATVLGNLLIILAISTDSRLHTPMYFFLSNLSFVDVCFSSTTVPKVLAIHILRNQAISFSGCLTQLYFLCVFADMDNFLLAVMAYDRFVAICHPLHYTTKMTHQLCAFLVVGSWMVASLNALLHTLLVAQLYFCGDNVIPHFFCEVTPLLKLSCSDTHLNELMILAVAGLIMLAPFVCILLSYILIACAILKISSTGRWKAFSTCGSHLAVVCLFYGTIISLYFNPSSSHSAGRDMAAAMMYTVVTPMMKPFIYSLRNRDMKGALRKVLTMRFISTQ
# In short: as §1
# UniProt Q8VGC6 = biological target: T4, UniProt Q8VGC6
# T4 sequence (whole entry): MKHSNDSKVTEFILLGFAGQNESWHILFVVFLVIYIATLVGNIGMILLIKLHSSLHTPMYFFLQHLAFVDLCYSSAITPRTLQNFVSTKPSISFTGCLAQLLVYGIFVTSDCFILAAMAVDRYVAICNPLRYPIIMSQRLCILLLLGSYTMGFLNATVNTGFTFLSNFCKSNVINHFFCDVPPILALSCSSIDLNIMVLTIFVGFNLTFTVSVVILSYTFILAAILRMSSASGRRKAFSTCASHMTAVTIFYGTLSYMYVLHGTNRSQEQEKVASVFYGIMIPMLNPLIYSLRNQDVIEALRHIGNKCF
# In short: as §1
# UniProt Q8VGJ3 = biological target: T5, UniProt Q8VGJ3
# T5 sequence (whole entry): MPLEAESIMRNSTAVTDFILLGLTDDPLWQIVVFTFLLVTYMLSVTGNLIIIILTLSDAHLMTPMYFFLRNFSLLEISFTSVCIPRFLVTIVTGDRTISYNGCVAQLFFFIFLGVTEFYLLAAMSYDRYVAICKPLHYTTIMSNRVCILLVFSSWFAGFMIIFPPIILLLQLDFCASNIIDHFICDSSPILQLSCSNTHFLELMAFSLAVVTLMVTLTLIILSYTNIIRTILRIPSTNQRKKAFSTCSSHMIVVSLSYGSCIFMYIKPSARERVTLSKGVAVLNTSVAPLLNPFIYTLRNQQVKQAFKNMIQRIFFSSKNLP
# In short: as §1
# UniProt Q8VGL0 = biological target: T6, UniProt Q8VGL0
# T6 sequence (whole entry): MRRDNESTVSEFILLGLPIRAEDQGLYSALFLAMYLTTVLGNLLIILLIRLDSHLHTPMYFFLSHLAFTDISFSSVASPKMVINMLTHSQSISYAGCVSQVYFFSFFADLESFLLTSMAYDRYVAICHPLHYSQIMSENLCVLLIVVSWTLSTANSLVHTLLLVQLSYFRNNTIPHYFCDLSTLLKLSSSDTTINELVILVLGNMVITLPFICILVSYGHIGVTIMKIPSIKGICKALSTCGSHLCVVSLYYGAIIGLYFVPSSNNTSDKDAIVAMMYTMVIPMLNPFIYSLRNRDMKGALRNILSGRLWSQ
# In short: as §1
# UniProt Q8VG49 = biological target: T7, UniProt Q8VG49
# T7 sequence (whole entry): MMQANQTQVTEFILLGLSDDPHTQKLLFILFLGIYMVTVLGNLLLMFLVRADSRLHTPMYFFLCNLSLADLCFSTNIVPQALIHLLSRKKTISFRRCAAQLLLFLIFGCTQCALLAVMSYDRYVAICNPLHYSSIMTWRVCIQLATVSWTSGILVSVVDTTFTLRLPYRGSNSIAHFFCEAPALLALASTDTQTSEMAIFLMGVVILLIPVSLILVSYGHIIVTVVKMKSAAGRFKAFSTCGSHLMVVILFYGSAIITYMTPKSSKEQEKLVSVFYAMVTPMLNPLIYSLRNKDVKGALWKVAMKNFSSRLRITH
# In short: as §1
# UniProt Q8VG77 = biological target: T8, UniProt Q8VG77
# T8 sequence (whole entry): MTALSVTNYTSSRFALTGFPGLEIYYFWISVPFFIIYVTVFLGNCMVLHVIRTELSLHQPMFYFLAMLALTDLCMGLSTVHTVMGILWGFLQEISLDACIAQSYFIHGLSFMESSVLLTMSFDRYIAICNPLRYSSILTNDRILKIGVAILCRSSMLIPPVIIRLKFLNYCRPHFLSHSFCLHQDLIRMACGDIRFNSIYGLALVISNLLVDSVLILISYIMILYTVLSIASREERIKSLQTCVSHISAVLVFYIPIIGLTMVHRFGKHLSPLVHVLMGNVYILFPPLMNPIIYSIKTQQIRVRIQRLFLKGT
# In short: as §1
# UniProt Q8VG96 = biological target: T9, UniProt Q8VG96
# T9 sequence (whole entry): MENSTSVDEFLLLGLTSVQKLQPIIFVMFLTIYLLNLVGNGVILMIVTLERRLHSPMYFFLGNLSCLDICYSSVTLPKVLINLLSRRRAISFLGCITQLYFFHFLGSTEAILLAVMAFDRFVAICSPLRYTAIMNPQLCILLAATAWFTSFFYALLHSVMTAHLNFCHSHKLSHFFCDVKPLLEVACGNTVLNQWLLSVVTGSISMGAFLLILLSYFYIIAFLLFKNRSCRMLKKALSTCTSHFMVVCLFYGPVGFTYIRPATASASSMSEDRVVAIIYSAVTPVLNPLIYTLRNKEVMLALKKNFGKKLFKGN
# In short: as §1
# UniProt Q8VGD7 = biological target: T10, UniProt Q8VGD7
# T10 sequence (whole entry): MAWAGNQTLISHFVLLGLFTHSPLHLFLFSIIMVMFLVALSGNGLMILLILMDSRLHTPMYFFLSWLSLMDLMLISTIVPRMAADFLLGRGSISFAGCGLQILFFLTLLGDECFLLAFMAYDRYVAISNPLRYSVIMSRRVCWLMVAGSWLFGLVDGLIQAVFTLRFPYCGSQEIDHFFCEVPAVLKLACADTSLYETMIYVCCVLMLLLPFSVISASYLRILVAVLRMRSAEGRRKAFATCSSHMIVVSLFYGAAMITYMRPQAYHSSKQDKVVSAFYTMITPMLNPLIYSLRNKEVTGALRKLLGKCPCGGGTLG
# In short: as §1
# UniProt Q8VGH1 = biological target: T11, UniProt Q8VGH1
# T11 sequence (whole entry): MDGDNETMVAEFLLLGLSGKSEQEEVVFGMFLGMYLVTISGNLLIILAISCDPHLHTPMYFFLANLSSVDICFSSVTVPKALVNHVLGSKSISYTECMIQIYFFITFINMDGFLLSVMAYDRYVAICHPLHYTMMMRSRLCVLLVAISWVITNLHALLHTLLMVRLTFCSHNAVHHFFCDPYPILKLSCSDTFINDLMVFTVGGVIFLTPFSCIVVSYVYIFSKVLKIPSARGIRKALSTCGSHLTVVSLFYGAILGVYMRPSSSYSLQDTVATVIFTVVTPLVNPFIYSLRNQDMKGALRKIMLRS
# In short: as §1
# UniProt Q8VGJ1 = biological target: T12, UniProt Q8VGJ1
# T12 sequence (whole entry): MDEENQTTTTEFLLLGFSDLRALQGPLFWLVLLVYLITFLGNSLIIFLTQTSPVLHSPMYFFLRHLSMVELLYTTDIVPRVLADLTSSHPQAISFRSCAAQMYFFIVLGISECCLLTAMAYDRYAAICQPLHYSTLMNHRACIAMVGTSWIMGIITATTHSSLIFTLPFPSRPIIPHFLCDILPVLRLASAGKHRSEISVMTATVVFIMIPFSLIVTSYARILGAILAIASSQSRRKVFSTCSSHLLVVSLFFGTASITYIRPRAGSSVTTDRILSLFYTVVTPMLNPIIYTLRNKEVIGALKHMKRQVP
# In short: as §1
# UniProt Q8VGJ5 = biological target: T13, UniProt Q8VGJ5
# T13 sequence (whole entry): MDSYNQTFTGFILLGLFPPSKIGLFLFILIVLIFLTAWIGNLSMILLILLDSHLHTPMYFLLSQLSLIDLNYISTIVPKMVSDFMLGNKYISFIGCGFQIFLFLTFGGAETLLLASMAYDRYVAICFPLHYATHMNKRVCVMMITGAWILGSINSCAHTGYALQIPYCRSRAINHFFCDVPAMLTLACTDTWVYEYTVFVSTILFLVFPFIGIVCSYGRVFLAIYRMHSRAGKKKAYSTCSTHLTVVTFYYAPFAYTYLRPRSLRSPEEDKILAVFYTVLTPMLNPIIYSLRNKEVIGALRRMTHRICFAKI
# In short: as §1
# UniProt Q8VGL7 = biological target: T14, UniProt Q8VGL7
# T14 sequence (whole entry): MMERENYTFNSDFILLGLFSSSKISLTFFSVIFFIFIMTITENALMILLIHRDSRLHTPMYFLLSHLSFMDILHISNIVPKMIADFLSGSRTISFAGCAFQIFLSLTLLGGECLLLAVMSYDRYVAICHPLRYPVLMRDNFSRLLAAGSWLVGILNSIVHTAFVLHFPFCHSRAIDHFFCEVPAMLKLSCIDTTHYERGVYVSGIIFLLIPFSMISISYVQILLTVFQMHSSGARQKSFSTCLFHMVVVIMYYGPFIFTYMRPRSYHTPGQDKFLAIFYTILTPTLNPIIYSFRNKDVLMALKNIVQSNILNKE
# In short: as §1
# UniProt Q8VGM2 = biological target: T15, UniProt Q8VGM2
# T15 sequence (whole entry): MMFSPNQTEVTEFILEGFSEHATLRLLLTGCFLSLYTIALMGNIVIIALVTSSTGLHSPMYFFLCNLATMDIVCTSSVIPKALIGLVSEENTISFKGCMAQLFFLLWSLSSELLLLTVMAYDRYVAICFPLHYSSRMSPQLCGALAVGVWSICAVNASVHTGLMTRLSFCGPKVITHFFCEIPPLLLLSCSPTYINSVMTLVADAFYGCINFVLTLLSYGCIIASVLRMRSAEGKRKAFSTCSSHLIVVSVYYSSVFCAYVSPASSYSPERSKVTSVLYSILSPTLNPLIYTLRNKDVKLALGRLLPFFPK
# In short: as §1
# UniProt Q8VGP6 = biological target: T16, UniProt Q8VGP6
# T16 sequence (whole entry): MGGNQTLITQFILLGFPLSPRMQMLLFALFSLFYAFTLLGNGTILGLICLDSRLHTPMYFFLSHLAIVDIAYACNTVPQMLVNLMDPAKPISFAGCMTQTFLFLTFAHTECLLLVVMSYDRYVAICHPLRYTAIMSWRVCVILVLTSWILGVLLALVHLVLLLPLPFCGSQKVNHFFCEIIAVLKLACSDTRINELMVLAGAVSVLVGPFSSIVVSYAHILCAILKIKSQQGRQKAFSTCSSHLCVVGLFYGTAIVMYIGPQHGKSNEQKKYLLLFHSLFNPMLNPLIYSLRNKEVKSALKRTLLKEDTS
# In short: as §1
# UniProt Q8VGQ3 = biological target: T17, UniProt Q8VGQ3
# T17 sequence (whole entry): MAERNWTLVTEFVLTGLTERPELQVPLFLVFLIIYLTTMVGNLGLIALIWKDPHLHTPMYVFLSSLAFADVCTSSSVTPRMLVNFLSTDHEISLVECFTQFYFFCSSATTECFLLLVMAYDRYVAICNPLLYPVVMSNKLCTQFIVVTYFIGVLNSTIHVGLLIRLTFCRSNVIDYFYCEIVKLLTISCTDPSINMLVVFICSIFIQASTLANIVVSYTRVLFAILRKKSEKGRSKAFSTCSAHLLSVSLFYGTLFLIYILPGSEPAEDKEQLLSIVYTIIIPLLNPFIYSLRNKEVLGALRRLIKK
# In short: as §1
SMILES,odorant receptor agonist call (UniProt Q8VG28),odorant receptor agonist call (UniProt Q8VG53),odorant receptor agonist call (UniProt Q8VG64),odorant receptor agonist call (UniProt Q8VGB9),odorant receptor agonist call (UniProt Q8VGC6),odorant receptor agonist call (UniProt Q8VGJ3),odorant receptor agonist call (UniProt Q8VGL0),odorant receptor agonist call (UniProt Q8VG49),odorant receptor agonist call (UniProt Q8VG77),odorant receptor agonist call (UniProt Q8VG96),odorant receptor agonist call (UniProt Q8VGD7),odorant receptor agonist call (UniProt Q8VGH1),odorant receptor agonist call (UniProt Q8VGJ1),odorant receptor agonist call (UniProt Q8VGJ5),odorant receptor agonist call (UniProt Q8VGL7),odorant receptor agonist call (UniProt Q8VGM2),odorant receptor agonist call (UniProt Q8VGP6),odorant receptor agonist call (UniProt Q8VGQ3)
CCCCCOC(C)=O,inactive,inactive,inactive,inactive,inactive,inactive,inactive,,,,,,,,,,,
CCCCCC(C)=O,,inactive,inactive,inactive,active,inactive,inactive,inactive,inactive,inactive,inactive,inactive,inactive,active,inactive,inactive,inactive,inactive
CCCCO,,inactive,inactive,inactive,inactive,inactive,inactive,,,,,,,,,,,
